Measurements reported in the M2OR odorant receptor database.
This is a selection; strong and weak results do not stand in their true shares. The calls were merged from several studies; some rest on single wells.

Protein sequences, listed by entry. Tags and fused reporters are not part of them. Lines headed by an entry give the natural chain unless they say otherwise; changes in a name come on top.
UniProt Q8NGN3: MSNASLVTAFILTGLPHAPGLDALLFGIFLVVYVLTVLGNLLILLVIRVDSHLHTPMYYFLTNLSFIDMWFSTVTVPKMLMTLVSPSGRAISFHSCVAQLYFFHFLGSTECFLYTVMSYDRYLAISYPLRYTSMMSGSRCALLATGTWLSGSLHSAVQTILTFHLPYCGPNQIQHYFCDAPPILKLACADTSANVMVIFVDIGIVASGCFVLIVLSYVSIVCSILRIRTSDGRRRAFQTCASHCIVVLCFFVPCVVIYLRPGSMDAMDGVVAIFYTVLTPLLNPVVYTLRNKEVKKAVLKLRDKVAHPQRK
UniProt Q9H209: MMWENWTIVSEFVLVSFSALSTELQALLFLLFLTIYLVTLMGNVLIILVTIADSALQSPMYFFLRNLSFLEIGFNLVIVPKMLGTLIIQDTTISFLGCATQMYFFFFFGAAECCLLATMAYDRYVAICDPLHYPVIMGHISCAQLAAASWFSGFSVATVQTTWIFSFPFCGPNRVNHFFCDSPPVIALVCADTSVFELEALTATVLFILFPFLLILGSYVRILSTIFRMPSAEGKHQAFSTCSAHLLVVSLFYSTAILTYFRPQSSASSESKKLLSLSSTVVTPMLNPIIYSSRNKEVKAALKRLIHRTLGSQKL
UniProt Q8NGN4: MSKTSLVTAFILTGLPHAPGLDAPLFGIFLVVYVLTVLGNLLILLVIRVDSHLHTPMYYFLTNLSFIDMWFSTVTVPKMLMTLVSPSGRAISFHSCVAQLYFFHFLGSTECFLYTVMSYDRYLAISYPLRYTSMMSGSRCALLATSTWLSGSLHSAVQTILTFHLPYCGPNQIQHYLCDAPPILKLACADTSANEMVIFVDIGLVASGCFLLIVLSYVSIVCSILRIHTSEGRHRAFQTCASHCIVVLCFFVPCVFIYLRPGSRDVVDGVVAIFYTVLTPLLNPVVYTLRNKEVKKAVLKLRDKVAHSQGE
UniProt O60403: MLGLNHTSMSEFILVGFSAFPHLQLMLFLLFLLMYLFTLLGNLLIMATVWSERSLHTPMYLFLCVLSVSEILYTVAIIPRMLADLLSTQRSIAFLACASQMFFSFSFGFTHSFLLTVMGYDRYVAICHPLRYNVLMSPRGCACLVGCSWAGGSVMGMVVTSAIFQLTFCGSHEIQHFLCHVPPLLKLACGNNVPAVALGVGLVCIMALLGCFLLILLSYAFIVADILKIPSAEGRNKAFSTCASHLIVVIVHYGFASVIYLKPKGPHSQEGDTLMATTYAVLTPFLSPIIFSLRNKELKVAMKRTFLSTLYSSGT
UniProt Q8NGA6: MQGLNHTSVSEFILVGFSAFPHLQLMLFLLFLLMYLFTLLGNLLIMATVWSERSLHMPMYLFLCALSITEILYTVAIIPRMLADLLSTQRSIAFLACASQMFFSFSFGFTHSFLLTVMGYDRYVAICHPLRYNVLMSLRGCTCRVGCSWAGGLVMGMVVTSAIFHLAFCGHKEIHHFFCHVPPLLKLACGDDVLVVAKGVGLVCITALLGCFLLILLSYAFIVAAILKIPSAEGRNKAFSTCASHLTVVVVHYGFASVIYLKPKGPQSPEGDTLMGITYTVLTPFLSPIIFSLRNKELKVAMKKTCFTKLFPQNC
UniProt P30954: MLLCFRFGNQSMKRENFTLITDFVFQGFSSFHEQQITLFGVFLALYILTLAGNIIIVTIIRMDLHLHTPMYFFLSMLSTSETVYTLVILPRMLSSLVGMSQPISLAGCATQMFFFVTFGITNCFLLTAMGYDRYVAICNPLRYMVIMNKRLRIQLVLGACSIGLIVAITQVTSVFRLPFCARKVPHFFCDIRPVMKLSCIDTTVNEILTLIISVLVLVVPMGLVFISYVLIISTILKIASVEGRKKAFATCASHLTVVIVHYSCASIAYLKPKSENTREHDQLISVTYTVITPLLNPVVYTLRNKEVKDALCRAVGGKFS
UniProt Q5JRS4: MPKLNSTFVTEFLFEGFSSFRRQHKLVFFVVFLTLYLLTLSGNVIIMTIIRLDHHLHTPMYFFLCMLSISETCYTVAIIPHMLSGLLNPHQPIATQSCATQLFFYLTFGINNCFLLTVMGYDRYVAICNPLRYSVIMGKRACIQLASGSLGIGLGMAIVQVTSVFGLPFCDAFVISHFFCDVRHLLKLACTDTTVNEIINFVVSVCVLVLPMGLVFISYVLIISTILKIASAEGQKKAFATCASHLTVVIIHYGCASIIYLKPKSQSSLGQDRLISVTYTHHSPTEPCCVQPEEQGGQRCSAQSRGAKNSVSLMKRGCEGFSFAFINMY

How the values were obtained:
Conditions in all cases: stereoisomer not certain
[1] = biological target: T1, OR10A5 (Homo sapiens) (UniProt Q9H207)
T1 sequence (whole entry): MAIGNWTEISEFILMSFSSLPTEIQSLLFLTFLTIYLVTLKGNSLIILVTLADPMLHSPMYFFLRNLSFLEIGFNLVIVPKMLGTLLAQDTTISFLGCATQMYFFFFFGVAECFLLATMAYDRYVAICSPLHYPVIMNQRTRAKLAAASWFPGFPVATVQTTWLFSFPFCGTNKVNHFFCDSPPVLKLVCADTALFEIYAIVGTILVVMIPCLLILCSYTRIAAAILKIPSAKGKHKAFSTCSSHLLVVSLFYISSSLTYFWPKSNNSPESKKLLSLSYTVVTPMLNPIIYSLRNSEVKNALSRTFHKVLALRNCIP
Outline: (§1)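 Transient luciferase assays in mammalian cell lines were common, though methods varied by source. The values come from published papers and their supplementary material, with extra details from the original authors when needed. Responsive refers to a measured signal the original authors judged statistically different from baseline, and non-responsive (inactive) to the remainder.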

[2] = biological target: T2, OR10A6 (Homo sapiens) (UniProt Q8NH74)
T2 sequence (whole entry): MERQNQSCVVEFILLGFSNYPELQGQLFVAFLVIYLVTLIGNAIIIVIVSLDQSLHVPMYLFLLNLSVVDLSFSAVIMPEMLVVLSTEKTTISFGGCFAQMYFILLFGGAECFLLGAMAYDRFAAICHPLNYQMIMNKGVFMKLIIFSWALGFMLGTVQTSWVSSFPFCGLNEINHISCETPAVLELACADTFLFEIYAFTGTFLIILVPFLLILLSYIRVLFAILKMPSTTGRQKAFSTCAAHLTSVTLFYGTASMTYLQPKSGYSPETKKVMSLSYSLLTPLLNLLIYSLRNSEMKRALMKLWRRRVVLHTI
Outline: as §1

[3] = biological target: T3, OR10A7 (Homo sapiens) (UniProt Q8NGE5)
T3 sequence (whole entry): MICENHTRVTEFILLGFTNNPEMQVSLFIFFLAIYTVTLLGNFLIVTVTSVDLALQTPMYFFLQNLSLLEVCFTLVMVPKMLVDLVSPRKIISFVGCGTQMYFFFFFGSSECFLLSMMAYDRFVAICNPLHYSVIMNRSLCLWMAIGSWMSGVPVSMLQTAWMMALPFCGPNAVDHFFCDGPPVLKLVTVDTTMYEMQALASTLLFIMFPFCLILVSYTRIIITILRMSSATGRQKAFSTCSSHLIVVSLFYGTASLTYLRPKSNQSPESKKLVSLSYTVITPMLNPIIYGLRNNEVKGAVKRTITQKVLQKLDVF
Outline: as §1

[4] = biological target: T4, OR10AG1 (Homo sapiens) (UniProt Q8NH19)
T4 sequence (whole entry): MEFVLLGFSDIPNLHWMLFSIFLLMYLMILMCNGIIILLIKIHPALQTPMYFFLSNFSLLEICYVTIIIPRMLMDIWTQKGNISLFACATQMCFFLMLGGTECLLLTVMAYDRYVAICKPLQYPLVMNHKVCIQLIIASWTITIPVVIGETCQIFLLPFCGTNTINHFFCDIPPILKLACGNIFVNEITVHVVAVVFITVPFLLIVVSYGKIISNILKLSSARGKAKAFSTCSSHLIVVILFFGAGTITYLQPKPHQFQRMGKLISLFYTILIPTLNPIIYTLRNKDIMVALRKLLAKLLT
Outline: as §1

[5] = biological target: T5, OR10C1 (Homo sapiens) (UniProt Q96KK4)
T5 sequence (whole entry): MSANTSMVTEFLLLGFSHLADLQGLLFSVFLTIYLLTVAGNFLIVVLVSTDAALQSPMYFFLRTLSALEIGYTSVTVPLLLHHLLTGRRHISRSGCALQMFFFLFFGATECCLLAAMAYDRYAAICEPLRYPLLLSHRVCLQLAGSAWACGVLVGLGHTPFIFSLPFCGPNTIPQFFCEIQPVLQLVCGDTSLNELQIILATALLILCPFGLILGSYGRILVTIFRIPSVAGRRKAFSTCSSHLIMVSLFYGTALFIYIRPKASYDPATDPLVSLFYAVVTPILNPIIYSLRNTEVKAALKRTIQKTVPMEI
Outline: as §1

[6] = biological target: T6, OR10G6 (Homo sapiens) (UniProt Q8NH81)
T6 sequence (whole entry): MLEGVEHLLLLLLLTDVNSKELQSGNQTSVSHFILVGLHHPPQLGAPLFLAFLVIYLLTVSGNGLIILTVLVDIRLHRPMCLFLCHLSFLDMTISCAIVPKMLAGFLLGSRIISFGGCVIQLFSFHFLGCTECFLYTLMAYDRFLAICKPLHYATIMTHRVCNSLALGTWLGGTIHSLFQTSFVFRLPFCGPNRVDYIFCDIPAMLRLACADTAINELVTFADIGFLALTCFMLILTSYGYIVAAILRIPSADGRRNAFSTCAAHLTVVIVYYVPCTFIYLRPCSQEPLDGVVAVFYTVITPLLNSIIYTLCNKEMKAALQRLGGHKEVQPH
Outline: as §1

[7] = biological target: T7, OR10G7 (Homo sapiens) (UniProt Q8NGN6)
T7 sequence (whole entry): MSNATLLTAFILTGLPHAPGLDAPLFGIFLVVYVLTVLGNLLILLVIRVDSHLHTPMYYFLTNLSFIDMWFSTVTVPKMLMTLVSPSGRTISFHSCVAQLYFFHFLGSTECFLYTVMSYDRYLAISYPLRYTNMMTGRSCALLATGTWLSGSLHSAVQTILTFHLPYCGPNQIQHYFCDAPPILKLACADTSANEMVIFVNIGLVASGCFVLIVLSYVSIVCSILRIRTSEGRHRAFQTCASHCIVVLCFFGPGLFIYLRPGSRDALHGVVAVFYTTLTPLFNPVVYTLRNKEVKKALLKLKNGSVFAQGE
Outline: as §1

[8] = biological target: T8, OR10G8 (Homo sapiens) (UniProt Q8NGN5)
T8 sequence (whole entry): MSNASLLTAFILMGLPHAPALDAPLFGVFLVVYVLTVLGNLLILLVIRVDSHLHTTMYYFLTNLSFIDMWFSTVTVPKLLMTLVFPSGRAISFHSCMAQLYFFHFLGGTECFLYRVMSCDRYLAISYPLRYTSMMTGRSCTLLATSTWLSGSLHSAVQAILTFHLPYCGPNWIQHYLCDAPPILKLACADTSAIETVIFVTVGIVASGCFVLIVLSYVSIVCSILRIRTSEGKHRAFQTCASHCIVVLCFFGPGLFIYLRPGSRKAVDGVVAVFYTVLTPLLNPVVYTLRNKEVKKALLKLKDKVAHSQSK
Outline: as §1

[9] = biological target: T9, OR10H1 (Homo sapiens) (UniProt Q9Y4A9)
T9 sequence (whole entry): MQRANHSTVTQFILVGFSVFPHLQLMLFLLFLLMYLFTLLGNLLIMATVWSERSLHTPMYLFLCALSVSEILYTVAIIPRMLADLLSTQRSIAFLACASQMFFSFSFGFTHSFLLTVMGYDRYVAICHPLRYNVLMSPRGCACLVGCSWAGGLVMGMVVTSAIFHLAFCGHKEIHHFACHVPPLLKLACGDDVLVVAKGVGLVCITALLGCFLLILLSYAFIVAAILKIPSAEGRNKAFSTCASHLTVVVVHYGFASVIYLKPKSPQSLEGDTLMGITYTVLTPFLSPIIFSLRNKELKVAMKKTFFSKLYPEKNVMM
Outline: as §1

[10] = biological target: T10, OR10H3 (Homo sapiens) (UniProt O60404)
T10 sequence (whole entry): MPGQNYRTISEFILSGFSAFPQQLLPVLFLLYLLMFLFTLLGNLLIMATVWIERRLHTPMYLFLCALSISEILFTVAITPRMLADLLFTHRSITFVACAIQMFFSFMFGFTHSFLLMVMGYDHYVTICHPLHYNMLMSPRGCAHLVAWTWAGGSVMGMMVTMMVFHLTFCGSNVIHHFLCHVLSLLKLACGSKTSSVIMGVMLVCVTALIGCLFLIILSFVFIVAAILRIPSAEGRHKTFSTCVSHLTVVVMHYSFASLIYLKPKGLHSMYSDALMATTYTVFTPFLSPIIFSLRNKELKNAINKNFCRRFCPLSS
Outline: as §1

[11] = biological target: T11, OR10H4 (Homo sapiens) (UniProt Q8NGA5)
T11 sequence (whole entry): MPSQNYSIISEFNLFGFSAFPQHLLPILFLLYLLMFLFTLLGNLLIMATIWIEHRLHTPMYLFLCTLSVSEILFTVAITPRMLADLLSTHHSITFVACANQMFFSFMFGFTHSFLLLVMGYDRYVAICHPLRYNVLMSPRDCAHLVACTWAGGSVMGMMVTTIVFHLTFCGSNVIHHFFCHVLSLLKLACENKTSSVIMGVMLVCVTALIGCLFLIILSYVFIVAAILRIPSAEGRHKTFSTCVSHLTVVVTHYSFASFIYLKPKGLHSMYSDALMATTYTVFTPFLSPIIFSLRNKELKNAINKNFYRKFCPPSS
Outline: as §1

[12] = biological target: T12, OR10J5 (Homo sapiens) (UniProt Q8NHC4)
T12 sequence (whole entry): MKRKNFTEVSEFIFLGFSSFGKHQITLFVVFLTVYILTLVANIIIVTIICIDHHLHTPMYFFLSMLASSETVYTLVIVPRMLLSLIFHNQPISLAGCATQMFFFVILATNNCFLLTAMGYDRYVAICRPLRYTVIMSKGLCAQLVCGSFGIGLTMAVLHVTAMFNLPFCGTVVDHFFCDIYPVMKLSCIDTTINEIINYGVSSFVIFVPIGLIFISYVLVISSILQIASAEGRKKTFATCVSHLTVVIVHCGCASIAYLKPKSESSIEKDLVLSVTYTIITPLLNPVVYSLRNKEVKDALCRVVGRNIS
Outline: as §1

[13] = biological target: T13, OR10G3 (Homo sapiens) (UniProt Q8NGC4)
T13 sequence (whole entry): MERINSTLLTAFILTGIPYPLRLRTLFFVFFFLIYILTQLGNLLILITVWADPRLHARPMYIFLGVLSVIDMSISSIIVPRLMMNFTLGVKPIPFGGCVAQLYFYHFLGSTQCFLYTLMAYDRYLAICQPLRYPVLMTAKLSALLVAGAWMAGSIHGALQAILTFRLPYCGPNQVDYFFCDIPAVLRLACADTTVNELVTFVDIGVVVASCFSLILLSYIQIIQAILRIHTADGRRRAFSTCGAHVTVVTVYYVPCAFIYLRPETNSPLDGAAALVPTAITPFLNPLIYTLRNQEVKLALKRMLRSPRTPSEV
Outline: as §1

[14] = biological target: OR10G4 (Homo sapiens) (UniProt Q8NGN3)
Outline: as §1

[15] = biological target: OR10A4 (Homo sapiens) (UniProt Q9H209)
Outline: as §1

[16] = biological target: OR10G9 (Homo sapiens) (UniProt Q8NGN4)
Outline: as §1

[17] = biological target: OR10H2 (Homo sapiens) (UniProt O60403)
Outline: as §1

[18] = biological target: OR10H5 (Homo sapiens) (UniProt Q8NGA6)
Outline: as §1

[19] = biological target: OR10J1 (Homo sapiens) (UniProt P30954)
Outline: as §1

[20] = biological target: OR10J3 (Homo sapiens) (UniProt Q5JRS4)
Outline: as §1
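Note: active if original authors judged signal statistically different from baseline.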

Compound | odorant receptor agonist call [1] | odorant receptor agonist call [2] | odorant receptor agonist call [3] | odorant receptor agonist call [4] | odorant receptor agonist call [5] | odorant receptor agonist call [6] | odorant receptor agonist call [7] | odorant receptor agonist call [8] | odorant receptor agonist call [9] | odorant receptor agonist call [10] | odorant receptor agonist call [11] | odorant receptor agonist call [12] | odorant receptor agonist call [13] | odorant receptor agonist call [14] | odorant receptor agonist call [15] | odorant receptor agonist call [16] | odorant receptor agonist call [17] | odorant receptor agonist call [18] | odorant receptor agonist call [19] | odorant receptor agonist call [20]
CC12C=CCC1C1CCC3=CC(=O)CCC3(C)C1CC2 (centres undefined) | inactive | inactive | inactive | inactive | inactive | inactive | active | inactive | inactive | inactive | inactive | inactive |  |  |  |  |  |  |  | 
CCCCCCCCCC=O | inactive | inactive | inactive | inactive | inactive | inactive | inactive | inactive | inactive | inactive | inactive | inactive |  |  |  |  |  |  |  | 
CCCCCCCOC(C)=O | inactive | inactive | inactive | inactive | inactive | inactive | active | inactive | inactive | inactive | inactive | inactive |  |  |  |  |  |  |  | 
COc1cc(C=O)ccc1O | inactive | inactive | inactive | inactive | inactive | inactive | active | inactive | inactive | inactive | inactive | inactive | active | active |  |  |  |  |  | 
c1cnccn1 | inactive | inactive | inactive | inactive | inactive | inactive | inactive | inactive | inactive | inactive | inactive | inactive |  |  |  |  |  |  |  | 
CCCCCCCCCCC=O | inactive | inactive | inactive | inactive | inactive | inactive | inactive | inactive | inactive | inactive | inactive | inactive |  |  |  |  |  |  |  | 
CC(=O)C(C)=O | inactive | inactive | inactive | inactive | inactive | inactive | inactive | inactive | inactive | inactive | inactive | inactive |  |  |  |  |  |  |  | 
CC(C)C=O | inactive | inactive | inactive | inactive | inactive | inactive | active | inactive | inactive | inactive | inactive | inactive |  |  |  |  |  |  |  | 
CC12CCC(C1)C(C)(C)C2=O (centres undefined) | inactive | inactive | inactive | inactive | inactive | inactive | active | inactive | inactive | inactive | inactive | inactive |  |  |  |  |  |  |  | 
O=C1CCCCCCCCCCCCCCO1 | inactive | inactive | inactive | inactive | inactive | inactive | inactive | inactive | inactive | inactive | inactive | inactive |  |  |  |  |  |  |  | 
CCCCCOC(C)=O | active | inactive | inactive | inactive | inactive | active | inactive | inactive | inactive | inactive | inactive | inactive | inactive |  |  |  |  |  |  | 
CC12C=CCC1C1CCC3CC(=O)CCC3(C)C1CC2 (centres undefined) | inactive | inactive | inactive | inactive | inactive | inactive | inactive | inactive | inactive | inactive | inactive | inactive | inactive |  | inactive | inactive | inactive | inactive | inactive | inactive

Limited to odorant receptor agonist call [7] (two entries from above):
Compound,odorant receptor agonist call [7]
c1cnccn1,inactive
CCCCCCCCCCC=O,inactive
